Reference: paper PMC8120287
No constants are given. Whether binding was seen depends on the method and setting. Binding seen in cells or lysates may run through a third protein. Some entries that bind do so weakly or less than the wild type.

Sequences of proteins named here, by UniProt entry; tags and fusion partners are left off.
UniProt P10415: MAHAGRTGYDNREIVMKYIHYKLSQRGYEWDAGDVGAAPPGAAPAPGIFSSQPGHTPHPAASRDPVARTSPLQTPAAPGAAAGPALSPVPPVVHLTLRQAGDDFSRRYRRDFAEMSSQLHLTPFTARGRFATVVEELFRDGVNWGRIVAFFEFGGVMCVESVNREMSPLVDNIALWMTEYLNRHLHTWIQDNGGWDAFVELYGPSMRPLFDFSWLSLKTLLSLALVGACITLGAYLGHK
UniProt Q14457: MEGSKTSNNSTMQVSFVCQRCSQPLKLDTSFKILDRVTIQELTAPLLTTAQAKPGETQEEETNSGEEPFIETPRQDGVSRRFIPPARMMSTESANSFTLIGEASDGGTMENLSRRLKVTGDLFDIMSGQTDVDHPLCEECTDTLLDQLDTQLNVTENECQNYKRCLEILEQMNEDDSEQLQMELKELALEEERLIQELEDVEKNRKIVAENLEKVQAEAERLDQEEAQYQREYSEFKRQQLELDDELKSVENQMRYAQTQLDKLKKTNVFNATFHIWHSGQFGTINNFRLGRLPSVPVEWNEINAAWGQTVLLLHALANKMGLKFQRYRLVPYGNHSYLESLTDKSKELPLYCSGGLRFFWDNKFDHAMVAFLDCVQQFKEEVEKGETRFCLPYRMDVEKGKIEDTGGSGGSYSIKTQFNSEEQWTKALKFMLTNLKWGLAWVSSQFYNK

Target: Bcl-2 (human (endogenous in DLD1 and SW480)) (UniProt P10415)
Test: co-IP; endogenous proteins in lysates of DLD1 and SW480 cells transfected with NGFR overexpression or empty plasmid, NGFR shRNA or control plasmid, and treated with 5-FU; IP with Bcl-2 antibodies and Dynabeads Protein G, blot for Beclin-1, and the reverse with Beclin-1 antibodies, blot for Bcl-2

binding: binds
Substance: Beclin-1 (from UniProt Q14457 1-450)
